# Data taken from the supplement of paper PMC4635364.
# Structures can show the parent of a compound that is named as a salt. The list shows a part of the results. This data set is noisy: repeats of one test often differ as much as different tests do.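 Cells: ReNCell VM human fetal ventral-midbrain neural progenitors, differentiated mitogen-free. Blinded raters compared doublecortin-stained (early neurons) or tyrosine hydroxylase-stained (dopaminergic neurons) images with untreated wells, where 0 means no change. After repeats and both raters were averaged, compounds scoring 2 or above became hits for retesting.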
# What was measured:
# ReNCell VM [1] = assay: neuronal differentiation score (DCX+ cell fraction vs untreated, manual image score) (score (-3 to 3)); higher = more neuronal differentiation; settings: 2 uM, 2 weeks
# ReNCell VM [2] = assay: dopaminergic neuron differentiation score (TH+ cell fraction vs untreated, manual image score) (score (0 to 3)); higher = more TH+ dopaminergic neuron differentiation; settings: 2 uM, 4 weeks, BDNF 10 ng/ml + GDNF 10 ng/ml
Structure (SMILES),neuronal differentiation score (ReNCell VM [1]; library: LOPAC),neuronal differentiation score (ReNCell VM [1]; library: Prestwick),dopaminergic neuron differentiation score (ReNCell VM [2]; library: LOPAC),dopaminergic neuron differentiation score (ReNCell VM [2]; library: Prestwick),neuronal differentiation score (ReNCell VM [1]; library: Tocriscreen),dopaminergic neuron differentiation score (ReNCell VM [2]; library: Tocriscreen),neuronal differentiation score (ReNCell VM [1]; library: Phytochemical),dopaminergic neuron differentiation score (ReNCell VM [2]; library: Phytochemical)
CC(C)COCC(CN(Cc1ccccc1)c1ccccc1)N1CCCC1 (stereo not drawn) [Bepridil hydrochloride],inactive: 0,inactive: 0,inactive: 0,inactive: 0,,,,
CC(COc1ccccc1)N(CCCl)Cc1ccccc1 (stereo not drawn) [Phenoxybenzamine hydrochloride],active: 3,inactive: 0,inactive: 0,inactive: 0,,,,
NC(=O)OCC(COC(N)=O)c1ccccc1 [Felbamate],inactive: 0,,inactive: 0,,inactive: 0,inactive: 0,,
OC[C@H]1O[C@@H](Oc2ccc(O)cc2)[C@H](O)[C@@H](O)[C@@H]1O [Arbutin],,inactive: 0,,inactive: 0,,,inactive: 0,inactive: 0
CN(Cc1cnc2nc(N)nc(N)c2n1)c1ccc(C(=O)N[C@@H](CCC(=O)O)C(=O)O)cc1 [Methotrexate],,inactive: 0,,inactive: 0,inactive: 0,inactive: 0,,
CC(C)Cn1cnc2c(N)nc3ccccc3c21 [Imiquimod],inactive: 0,inactive: 0,inactive: 0,inactive: 0,,,,
O=C(OCCN1CCCCC1)c1c[nH]c2ccccc12,inactive: -1,,inactive: 0,,inactive: 0,inactive: 0,,
Cc1[nH]c(=O)c(C#N)cc1-c1ccncc1 [Milrinone],inactive: 0,inactive: 0,inactive: 0,inactive: 1,,,,
CCCNC(=O)NS(=O)(=O)c1ccc(Cl)cc1 [Chlorpropamide],inactive: 0,inactive: 0,inactive: 0,inactive: 0,,,,
CN=c1nc(-c2ccccc2)n(-c2ccccc2)s1,inactive: 1,,inactive: 0,,inactive: -3,inactive: 0,,
COc1ccc([C@@H]2CC(=O)c3c(O)cc(O[C@@H]4O[C@H](CO[C@@H]5O[C@@H](C)[C@H](O)[C@@H](O)[C@H]5O)[C@@H](O)[C@H](O)[C@H]4O)cc3O2)cc1O [Hesperidin],,inactive: 0,,inactive: 0,,,inactive: 0,inactive: 0
CC(C)(C)c1ccc(C(O)CCCN2CCC(C(O)(c3ccccc3)c3ccccc3)CC2)cc1 (stereo not drawn) [Terfenadine],inactive: 0,inactive: 0,inactive: 0,inactive: 0,,,,
C=CCc1ccccc1OCC(O)CNC(C)C (stereo not drawn) [Alprenolol hydrochloride],inactive: 0,inactive: 0,inactive: 0,inactive: 0,,,,
CC(CN1c2ccccc2Sc2ccccc21)N(C)C (stereo not drawn) [Promethazine hydrochloride],inactive: 0,inactive: 0,inactive: 0,inactive: 0,,,,
CCCCNc1c(C(=O)OCC)c(C)nc2c1cnn2CC [Tracazolate hydrochloride],,inactive: 0,,inactive: 1,inactive: 0,inactive: 0,,
N#CC(=C(/N)Sc1ccccc1N)/C(C#N)=C(/N)Sc1ccccc1N,inactive: -2,,inactive: 0,,inactive: 0,inactive: 1,,
O=C1NC(=O)C(c2ccccc2[N+](=O)[O-])=C1Nc1ccc(O)c(Cl)c1,active: 3,,inactive: 0,,active: 3,inactive: 0,,
CCCCCCCCCCCCCCCC(=O)NCCO [Palmitoylethanolamide],inactive: 0,,inactive: 0,,inactive: 0,inactive: 0,,
Cc1ccc(S(=O)(=O)NC(=O)NN2CCCCCC2)cc1 [Tolazamide],inactive: 0,inactive: 0,inactive: 0,inactive: 0,,,,
CNCCCN1c2ccccc2CCc2ccccc21 [Desipramine hydrochloride],inactive: 0,inactive: 0,inactive: 0,inactive: 0,,,,
O=C(O)Cc1ccccc1Nc1c(Cl)cccc1Cl [Diclofenac sodium],inactive: 0,inactive: 0,inactive: 0,inactive: 0,,,,
CC(C)NCC(O)c1ccc2ccccc2c1 (stereo not drawn) [Pronethalol hydrochloride],,inactive: 0,,inactive: 0,inactive: 0,inactive: 0,,
O=C1C(SCCO)=C(SCCO)C(=O)c2ccccc21,inactive: 0,,inactive: 0,,inactive: 0,inactive: 0,,
Nc1nc(F)nc2c1ncn2[C@@H]1O[C@H](CO)[C@@H](O)[C@@H]1O [Fludarabine],,inactive: 0,,inactive: 0,inactive: 0,inactive: 0,,
O=c1c2ccccc2nc2n1CCc1c-2[nH]c2ccccc12 [Rutaecarpine],inactive: 0,,active: 3,,,,inactive: 0,inactive: 0
NCC(O)(CS(=O)(=O)O)c1ccc(Cl)cc1 (stereo not drawn) [2-Hydroxysaclofen],inactive: 0,,inactive: 0,,inactive: 0,inactive: 0,,
O=C(CCCN1CC=C(n2c(=O)[nH]c3ccccc32)CC1)c1ccc(F)cc1 [Droperidol],inactive: 0,inactive: 0,inactive: 0,inactive: 0,,,,

# 2 compounds picked at random from the list so far, as already listed:
Structure (SMILES),neuronal differentiation score (ReNCell VM [1]; library: LOPAC),neuronal differentiation score (ReNCell VM [1]; library: Prestwick),dopaminergic neuron differentiation score (ReNCell VM [2]; library: LOPAC),dopaminergic neuron differentiation score (ReNCell VM [2]; library: Prestwick),neuronal differentiation score (ReNCell VM [1]; library: Tocriscreen),dopaminergic neuron differentiation score (ReNCell VM [2]; library: Tocriscreen),neuronal differentiation score (ReNCell VM [1]; library: Phytochemical),dopaminergic neuron differentiation score (ReNCell VM [2]; library: Phytochemical)
O=C(CCCN1CC=C(n2c(=O)[nH]c3ccccc32)CC1)c1ccc(F)cc1 [Droperidol],inactive: 0,inactive: 0,inactive: 0,inactive: 0,,,,
N#CC(=C(/N)Sc1ccccc1N)/C(C#N)=C(/N)Sc1ccccc1N,inactive: -2,,inactive: 0,,inactive: 0,inactive: 1,,
